{"source": "paper PMC9229919", "about": "“4-Aminoquinoline-Based Adamantanes as Potential Anticholinesterase Agents in Symptomatic Treatment of Alzheimer’s Disease” (Pharmaceutics, 2022)", "origin": "cited, not measured here", "conditions": "standard compounds of the interpolation method; cited from earlier work"}
{"smiles": "O=C1Nc2ccc(Cl)cc2C(c2ccccc2)=NC1O", "note": "(centres unmarked) [oksazepam]", "values": [{"measurement": "pKa1", "value": 10.9}, {"measurement": "pKa2", "value": 1.55}]}
